Reference: patent publication EP4740933A1, “CLEANING COMPOSITION AND USE THEREOF” (Suzhou Oulit Biopharm Co., Ltd., priority 2023, dated 2025)
The amount applied is not stated for every result.

system: Reconstructed Human Epidermis; assay: In vitro skin irritation: reconstructed human epidermis test (OECD TG 439); type: cell-based

Compound	OD value Mean
CCCCCCCCCCCC(=O)N[C@@H](C)C(=O)O.N=C(N)NCCC[C@H](N)C(=O)O [LA-Arg]	1.1080
CCCCCCCCCCCC(=O)N[C@@H](C)C(=O)O [Lauroyl alanine (LA), Lauroyl alanine]	1.0866
Sodium laureth sulfate [Sodium laureth sulfate (AES)]	0.6498
CCCCCCCCCCCC(=O)NC(C)C(=O)[O-].[Na+] (stereo not drawn) [LA-NaOH]	0.9895
CCCCCCCCCCCCOS(=O)(=O)[O-].[Na+] [Positive control (PC)]	0.0458
CCCCCCCCCCCCOS(=O)(=O)[O-].[Na+] [Sodium dodecyl sulfate (K12), Sodium dodecyl sulfate]	0.4640
